Source: paper PMC10599749
Results are given in words; binding and its absence hold for the method and conditions named. In cells and extracts the contact can be indirect. Some results given as binding are weak or reduced against the parent protein; the word gives no strength.

Experiments:
[1] = biological target: T1, phospholipase C-like protein 1 (PLCL1) (human (in 786-O cells; endogenous or from the expression lentivirus not told)) (UniProt Q15111); test: co-IP; 786-O cell lysates; 5 ug PLCL1 antibody, anti-myc antibody or IgG at 4°C overnight, protein A/G magnetic beads 1 hour, low-pH elution, immunoblot with anti-PLCL1 and anti-MYC; reciprocal
T1 sequence: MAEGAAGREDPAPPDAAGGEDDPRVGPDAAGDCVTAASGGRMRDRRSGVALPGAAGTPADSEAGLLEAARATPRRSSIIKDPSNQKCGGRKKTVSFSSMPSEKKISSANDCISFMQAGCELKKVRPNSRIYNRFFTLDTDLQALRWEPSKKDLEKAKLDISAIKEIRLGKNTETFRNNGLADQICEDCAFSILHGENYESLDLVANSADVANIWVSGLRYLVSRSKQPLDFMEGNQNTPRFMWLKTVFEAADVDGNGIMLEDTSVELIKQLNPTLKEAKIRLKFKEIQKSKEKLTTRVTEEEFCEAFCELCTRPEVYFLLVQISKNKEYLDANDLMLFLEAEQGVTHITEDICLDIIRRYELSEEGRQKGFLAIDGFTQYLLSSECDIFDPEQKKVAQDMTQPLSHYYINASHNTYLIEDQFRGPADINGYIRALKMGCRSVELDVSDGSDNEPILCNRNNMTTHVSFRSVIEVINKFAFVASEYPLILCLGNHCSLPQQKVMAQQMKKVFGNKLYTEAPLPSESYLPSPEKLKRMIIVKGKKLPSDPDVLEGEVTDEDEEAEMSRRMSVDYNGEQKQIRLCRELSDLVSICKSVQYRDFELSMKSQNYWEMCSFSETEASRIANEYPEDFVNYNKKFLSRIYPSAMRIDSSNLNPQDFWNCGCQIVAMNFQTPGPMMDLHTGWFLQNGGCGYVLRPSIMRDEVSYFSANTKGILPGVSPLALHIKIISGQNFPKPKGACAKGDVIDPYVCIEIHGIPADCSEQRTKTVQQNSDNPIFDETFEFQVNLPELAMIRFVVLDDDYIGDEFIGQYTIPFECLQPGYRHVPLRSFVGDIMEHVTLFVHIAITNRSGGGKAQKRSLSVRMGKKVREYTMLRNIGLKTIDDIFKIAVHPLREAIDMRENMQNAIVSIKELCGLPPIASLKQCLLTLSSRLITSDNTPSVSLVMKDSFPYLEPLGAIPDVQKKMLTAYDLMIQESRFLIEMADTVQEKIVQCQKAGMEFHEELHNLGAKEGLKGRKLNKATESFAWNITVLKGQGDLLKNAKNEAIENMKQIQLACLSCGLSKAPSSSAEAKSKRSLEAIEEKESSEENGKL

[2] = biological target: T2, decidual protein induced by progesterone (DEPP) (UniProt Q9NTK1); test: as above
T2 sequence: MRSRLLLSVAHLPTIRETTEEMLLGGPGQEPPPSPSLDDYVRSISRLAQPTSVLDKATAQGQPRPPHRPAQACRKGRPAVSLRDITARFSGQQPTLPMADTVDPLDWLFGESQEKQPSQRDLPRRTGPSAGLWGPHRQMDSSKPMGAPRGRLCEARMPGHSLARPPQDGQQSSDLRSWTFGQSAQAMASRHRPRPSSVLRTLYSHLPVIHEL

Row | Binder | binding [1] | binding [2]
1 | decidual protein induced by progesterone (DEPP) (protein, UniProt Q9NTK1 1-212) MRSRLLLSVAHLPTIRETTEEMLLGGPGQEPPPSPSLDDYVRSISRLAQPTSVLDKATAQGQPRPPHRPAQACRKGRPAVSLRDITARFSGQQPTLPMADTVDPLDWLFGESQEKQPSQRDLPRRTGPSAGLWGPHRQMDSSKPMGAPRGRLCEARMPGHSLARPPQDGQQSSDLRSWTFGQSAQAMASRHRPRPSSVLRTLYSHLPVIHEL | binds | –
2 | phospholipase C-like protein 1 (PLCL1) (protein, UniProt Q15111 1-1095) MAEGAAGREDPAPPDAAGGEDDPRVGPDAAGDCVTAASGGRMRDRRSGVALPGAAGTPADSEAGLLEAARATPRRSSIIKDPSNQKCGGRKKTVSFSSMPSEKKISSANDCISFMQAGCELKKVRPNSRIYNRFFTLDTDLQALRWEPSKKDLEKAKLDISAIKEIRLGKNTETFRNNGLADQICEDCAFSILHGENYESLDLVANSADVANIWVSGLRYLVSRSKQPLDFMEGNQNTPRFMWLKTVFEAADVDGNGIMLEDTSVELIKQLNPTLKEAKIRLKFKEIQKSKEKLTTRVTEEEFCEAFCELCTRPEVYFLLVQISKNKEYLDANDLMLFLEAEQGVTHITEDICLDIIRRYELSEEGRQKGFLAIDGFTQYLLSSECDIFDPEQKKVAQDMTQPLSHYYINASHNTYLIEDQFRGPADINGYIRALKMGCRSVELDVSDGSDNEPILCNRNNMTTHVSFRSVIEVINKFAFVASEYPLILCLGNHCSLPQQKVMAQQMKKVFGNKLYTEAPLPSESYLPSPEKLKRMIIVKGKKLPSDPDVLEGEVTDEDEEAEMSRRMSVDYNGEQKQIRLCRELSDLVSICKSVQYRDFELSMKSQNYWEMCSFSETEASRIANEYPEDFVNYNKKFLSRIYPSAMRIDSSNLNPQDFWNCGCQIVAMNFQTPGPMMDLHTGWFLQNGGCGYVLRPSIMRDEVSYFSANTKGILPGVSPLALHIKIISGQNFPKPKGACAKGDVIDPYVCIEIHGIPADCSEQRTKTVQQNSDNPIFDETFEFQVNLPELAMIRFVVLDDDYIGDEFIGQYTIPFECLQPGYRHVPLRSFVGDIMEHVTLFVHIAITNRSGGGKAQKRSLSVRMGKKVREYTMLRNIGLKTIDDIFKIAVHPLREAIDMRENMQNAIVSIKELCGLPPIASLKQCLLTLSSRLITSDNTPSVSLVMKDSFPYLEPLGAIPDVQKKMLTAYDLMIQESRFLIEMADTVQEKIVQCQKAGMEFHEELHNLGAKEGLKGRKLNKATESFAWNITVLKGQGDLLKNAKNEAIENMKQIQLACLSCGLSKAPSSSAEAKSKRSLEAIEEKESSEENGKL | – | binds
